# PubChem BioAssay AID540256 (National Center for Advancing Translational Sciences (NCATS), 2011)
# Hit rate of the full screen: of about 300,000 compounds, about 3,700 (1.2%) were called active. The inconclusive results got no clear call from the source; some entries with a clear call stand among them for comparison. Calls follow the shape of the full dose curve; tested in HEK293 cells. A potency beside an inconclusive call is a rough fit, not a confirmed value.
# Experiment: qHTS for Inhibitors of binding or entry into cells for Lassa Virus; also: nearly all actives have a fitted effect of over 50% in size
# Details: Lassa virus pseudotype entry inhibition, cell reporter; series mostly up to 37.9 µM
# Potency is read from the fitted curve at half-maximal effect.
row,SMILES,Potency
1,C/C(=N\NC(=O)c1sccc1C)c1ccncc1,inactive
2,Cc1ccc2nc(-c3ccc(-c4ccccn4)s3)cn2c1,"inconclusive: 11.2 µM [inhibitor, single point]"
3,CC(CC(=O)O)n1nnc2ccccc21 (stereo unspecified),"inconclusive: 17.8 µM [activator, single point]"
4,CC(=O)c1ccc(N2CCN(C(=O)c3cccc(Oc4ccccc4)c3)CC2)cc1,active: 3.16 µM
5,COc1cccc(CSc2nc3ccncc3[nH]2)c1,"inconclusive: 2 µM [inhibitor, partial curve, poor fit]"
6,Nc1c(S(=O)(=O)O)cc(Nc2ccc(Nc3nc(Cl)nc(Nc4ccc(S(=O)(=O)O)cc4)n3)c(S(=O)(=O)O)c2)c2c1C(=O)c1ccccc1C2=O,"inconclusive: 2.5 µM [inhibitor, partial curve, poor fit]"
7,COc1ccc(Nc2nn(-c3ccc(OC(F)(F)F)cc3)nc2C(C)=O)cc1,"inconclusive: 10 µM [activator, partial curve, poor fit]"
8,O=C(NCC1CCCO1)c1ccc(COc2ccc(Br)cc2)cc1 (stereo unspecified),"inconclusive: 20.6 µM [inhibitor, single point]"
9,C/C(Cn1nnc([N+](=O)[O-])n1)=N\NC(=O)c1ccncc1,"inconclusive: 12.6 µM [inhibitor, single point]"
10,O=C(NCc1ccc(F)cc1)C1CCN(S(=O)(=O)c2ccc(Br)s2)CC1,"inconclusive: 3.16 µM [inhibitor, single point]"
11,CCOc1ccc(-c2nnc(N(CC)C(=O)C3CCC3)s2)cc1,"inconclusive: 29.1 µM [inhibitor, single point]"
12,O=C(c1ccc(Br)cc1)c1sc(N2CCOCC2)nc1-c1ccccc1,"inconclusive: 35.5 µM [inhibitor, single point]"
13,Cc1ccccc1NC(=O)COC(=O)c1ccc(S(C)(=O)=O)c([N+](=O)[O-])c1,active: 20.6 µM
14,OCCC1CN(CC(c2ccccc2)c2ccccc2)CCN1C1CCCC1 (stereo unspecified),"inconclusive: 10.3 µM [inhibitor, partial curve]"
15,CSc1ncc(C(=O)Nc2ccccc2C)c(C)n1,inactive
16,CCN1C(=O)/C(=C\c2nc3ccccc3c(=O)n2-c2ccccc2)c2ccccc21,"inconclusive: 7.08 µM [inhibitor, partial curve, poor fit]"
17,CN1/C(=C\C(=O)c2cccnc2)Sc2ccccc21,inactive
18,COc1cccc(CCNC(=O)C2CCCN(c3ncnc4c3nc3n4CCCCC3)C2)c1OC (stereo unspecified),"inconclusive: 3.98 µM [inhibitor, single point]"
19,COc1ccc(-n2c(SCC(=O)NCc3ccccc3)nc3c([nH]c4ccccc43)c2=O)cc1,inactive
20,C#CCSc1nnnn1-c1cccc(Cl)c1,"inconclusive: 10 µM [inhibitor, partial curve, poor fit]"
21,CCN(CC)c1ccc(NC(=O)COC(=O)CSc2ccc(Br)cc2C)cc1,"inconclusive: 11.2 µM [activator, partial curve, poor fit]"

# A different layout for some results above.
row	SMILES	Potency
2	Cc1ccc2nc(-c3ccc(-c4ccccn4)s3)cn2c1	inconclusive: 11.2 µM [inhibitor, single point]
3	CC(CC(=O)O)n1nnc2ccccc21 (stereo unspecified)	inconclusive: 17.8 µM [activator, single point]
4	CC(=O)c1ccc(N2CCN(C(=O)c3cccc(Oc4ccccc4)c3)CC2)cc1	active: 3.16 µM

# The results go on:

row,SMILES,Potency
1,CC(C)N(C(=O)Cn1cc(S(=O)(=O)Cc2ccc(Cl)cc2)c2ccccc21)C(C)C,inactive
2,Cc1ccc(S(=O)(=O)Nc2ccc(O)c3cccnc23)cc1,"inconclusive: 20 µM [inhibitor, partial curve, poor fit]"
3,O=c1[nH]c2cc3c(cc2cc1C(c1nnnn1C1CCCC1)N1CCSCC1)OCCO3 (stereo unspecified),inactive
4,CC(C)(C)c1ccc(C(=O)NC(=S)Nc2ccc(N3CCOCC3)cc2)cc1,"inconclusive: 4.47 µM [inhibitor, full curve, poor fit]"
5,COc1cc2c(=O)n(Cc3ccco3)c(=O)n(CC(=O)c3cccc(Br)c3)c2cc1OC,"inconclusive: 31.6 µM [inhibitor, single point]"
6,CCCCOc1ccc(-c2nnc(-c3ccncc3)o2)cc1,"inconclusive: 2.59 µM [activator, single point]"
7,O=C(Nc1ccc2nc3n(c(=O)c2c1)CCCCC3)c1cccc(C(F)(F)F)c1,"inconclusive: 11.2 µM [inhibitor, partial curve, poor fit]"
8,Cc1cc2cc(CN(CC3CCCO3)C(=S)Nc3ccccc3)c(=O)[nH]c2cc1C (stereo unspecified),active: 7.08 µM
9,O=c1c(C(c2ccc(Cl)cc2)c2c(O)nc3n(c2=O)CCCS3)c(O)nc2n1CCCS2,inactive
10,COc1ccc(CNC(=O)c2cccn2-c2nnc(N3CCCC3)s2)c(OC)c1,inactive
11,COc1ccc(C2(CNC(=O)C(=O)Nc3ccccc3C)CCCC2)cc1OC,"inconclusive: 35.5 µM [inhibitor, single point]"
12,C=CCN(Cc1cc(OC)ccc1OC)S(=O)(=O)N(C)C,"inconclusive: 5.62 µM [activator, partial curve, poor fit]"
13,COc1ccc(OCC(=O)NNC(=S)NC(=O)C2CC2)cc1,"inconclusive: 15.8 µM [inhibitor, partial curve, poor fit]"
14,CC(=O)C1=C(O)C(=O)N(c2ccc(Br)cn2)C1c1ccccc1[N+](=O)[O-] (stereo unspecified),"inconclusive: 8.91 µM [activator, single point]"
15,COc1cccc(NC(=O)CNC(=O)[C@@H]2Cc3ccccc3CN2C(=O)OC(C)(C)C)c1,"inconclusive: 10 µM [inhibitor, partial curve, poor fit]"
16,COc1ccc(N=C2SC(C(=O)Nc3ccc(OC)cc3)CC(=O)N2CCN2CCOCC2)cc1 (stereo unspecified),"inconclusive: 20.6 µM [inhibitor, partial curve, poor fit]"
17,C/C(=C\c1ccccc1)CN1CCC(C(=O)N2CCC(C)CC2)CC1,"inconclusive: 20 µM [inhibitor, partial curve, poor fit]"
18,Cc1ccc(S(=O)(=O)c2nc(-c3ccc(F)cc3)oc2N2CCN(c3ccccc3)CC2)cc1,inactive
19,CCN(CC)c1ccc(C2Nc3ccccc3-c3cc(C)nn32)cc1 (stereo unspecified),"inconclusive: 35.5 µM [inhibitor, single point]"
20,CN(C)c1cc(C(F)(F)F)nc(-c2ccccn2)n1,"inconclusive: 2.31 µM [inhibitor, partial curve, poor fit]"
